The target in this assay is T1, DDX1 (human (endogenous; cell line not stated, all cell lines of the paper are human)) (UniProt Q92499).
T1 sequence: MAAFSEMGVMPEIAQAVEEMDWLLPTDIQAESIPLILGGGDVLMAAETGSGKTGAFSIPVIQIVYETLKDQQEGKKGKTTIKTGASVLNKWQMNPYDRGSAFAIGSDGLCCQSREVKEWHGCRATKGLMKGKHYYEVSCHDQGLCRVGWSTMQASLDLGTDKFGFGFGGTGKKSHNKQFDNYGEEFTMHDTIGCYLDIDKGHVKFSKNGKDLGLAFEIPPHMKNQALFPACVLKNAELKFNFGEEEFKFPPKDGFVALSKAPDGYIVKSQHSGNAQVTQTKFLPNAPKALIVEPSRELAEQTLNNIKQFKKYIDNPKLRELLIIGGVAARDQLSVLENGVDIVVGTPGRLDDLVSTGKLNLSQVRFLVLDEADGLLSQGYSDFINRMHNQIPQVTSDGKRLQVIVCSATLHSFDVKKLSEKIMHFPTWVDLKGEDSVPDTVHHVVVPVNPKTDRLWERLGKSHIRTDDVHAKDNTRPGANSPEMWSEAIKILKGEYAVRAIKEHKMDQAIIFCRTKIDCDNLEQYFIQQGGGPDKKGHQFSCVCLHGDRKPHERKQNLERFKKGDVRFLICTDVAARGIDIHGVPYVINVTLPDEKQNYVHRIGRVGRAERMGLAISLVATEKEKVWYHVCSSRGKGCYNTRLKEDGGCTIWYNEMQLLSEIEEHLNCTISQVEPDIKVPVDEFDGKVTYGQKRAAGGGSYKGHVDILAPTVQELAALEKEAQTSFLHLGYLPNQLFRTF
Briefly: co-IP; endogenous co-immunoprecipitation; interaction did not depend on RNA; cell line and precipitating antibody not stated.

These are yes or no findings as the source states them, for the method shown. Binding seen in cells or lysates may run through a third protein. Some binding calls cover weakened binding; strength is not graded here.

For one molecule, binding results are on record in paper PMC7079398.

B1: DiGeorge syndrome critical region gene 8 (DGCR8) (protein, UniProt Q8WYQ5 1-773)
chain: METDESPSPLPCGPAGEAVMESRARPFQALPREQSPPPPLQTSSGAEVMDVGSGGDGQSELPAEDPFNFYGASLLSKGSFSKGRLLIDPNCSGHSPRTARHAPAVRKFSPDLKLLKDVKISVSFTESCRSKDRKVLYTGAERDVRAECGLLLSPVSGDVHACPFGGSVGDGVGIGGESADKKDEENELDQEKRVEYAVLDELEDFTDNLELDEEGAGGFTAKAIVQRDRVDEEALNFPYEDDFDNDVDALLEEGLCAPKKRRTEEKYGGDSDHPSDGETSVQPMMTKIKTVLKSRGRPPTEPLPDGWIMTFHNSGVPVYLHRESRVVTWSRPYFLGTGSIRKHDPPLSSIPCLHYKKMKDNEEREQSSDLTPSGDVSPVKPLSRSAELEFPLDEPDSMGADPGPPDEKDPLGAEAAPGALGQVKAKVEVCKDESVDLEEFRSYLEKRFDFEQVTVKKFRTWAERRQFNREMKRKQAESERPILPANQKLITLSVQDAPTKKEFVINPNGKSEVCILHEYMQRVLKVRPVYNFFECENPSEPFGASVTIDGVTYGSGTASSKKLAKNKAARATLEILIPDFVKQTSEEKPKDSEELEYFNHISIEDSRVYELTSKAGLLSPYQILHECLKRNHGMGDTSIKFEVVPGKNQKSEYVMACGKHTVRGWCKNKRVGKQLASQKILQLLHPHVKNWGSLLRMYGRESSKMVKQETSDKSVIELQQYAKKNKPNLHILSKLQEEMKRLAEEREETRKKPKMSIVASAQPGGEPLCTVDV
Take B1: the binding entry was “binds”.
